Test results published in patent US20040053231A1.
Results are given in words; binding and its absence hold for the method and conditions named. Binding seen in cells or lysates may run through a third protein. Some results given as binding are weak or reduced against the parent protein; the word gives no strength.

Chains of the proteins cited; added tags and fusions are not shown. Residues count along the entry.
UniProt Q09472, residues 300-528: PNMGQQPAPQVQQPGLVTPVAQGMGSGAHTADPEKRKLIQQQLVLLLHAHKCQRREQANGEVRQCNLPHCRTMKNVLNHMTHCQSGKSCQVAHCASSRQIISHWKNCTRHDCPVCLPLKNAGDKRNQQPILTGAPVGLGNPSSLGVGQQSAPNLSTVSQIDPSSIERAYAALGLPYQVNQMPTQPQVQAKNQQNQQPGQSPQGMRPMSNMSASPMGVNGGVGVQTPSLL

What was measured:
[1] = target: GST-p300CH1 (p300 residues 300-528) (UniProt Q09472); assay: GST pull-down of 35S-labelled protein on GST-p300CH1 (FIG. 2A)
[2] = target: GST-p300CH1 (p300 residues 300-528) (UniProt Q09472); assay: GST pull-down: 35S-labelled in vitro translated HCITEDX on GST tagged p300 (CH1 domain) on glutathione beads, SDS-PAGE and autoradiography
[3] = target: GST-p300CH1 (p300 residues 300-528) (UniProt Q09472); assay: GST pull-down of 35S-labelled in vitro translated protein on GST-p300CH1
[4] = target: GST-p300CH1 (p300 residues 300-528) (UniProt Q09472); assay: GST-p300CH1 pull-down with peptide competition
[5] = target: GST-p300CH1 (p300 residues 300-528) (UniProt Q09472); assay: GST pull-down of 35S-labelled SREBP2 (1-462) on GST-CH1

Row | Binder | binding [1] | binding [2] | binding [3] | binding [4] | binding [5]
1 | HCITEDX (protein, 35S-labelled (in vitro translated) in the GST pull-down assays) MADHLMLAEGYRLVQRPPSAAAAHGPHALRTLPPYAGPGLDSGLRPRGAPLGPPPPRQPGALAYGAFGPPSSFQPFPAVPPPAAGIAHLQPVATPYPGRAAAPPNAPGGPPGPQPAPSAAAPPPPAHALGGMDAELIDEEALTSLELELGLHRVRELPELFLGQSEFDCFSDLGSAPPAGSVSC | binds | binds | binds | – | –
2 | SREBP2 (residues 1-462) (protein, human, UniProt Q12772 1-462, looked up, 35S-labelled (in vitro translated)) MDDSGELGGLETMETLTELGDELTLGDIDEMLQFVSNQVGEFPDLFSEQLCSSFPGSGGSGSSSGSSGSSSSSSNGRGSSSGAVDPSVQRSFTQVTLPSFSPSAASPQAPTLQVKVSPTSVPTTPRATPILQPRPQPQPQPQTQLQQQTVMITPTFSTTPQTRIIQQPLIYQNAATSFQVLQPQVQSLVTSSQVQPVTIQQQVQTVQAQRVLTQTANGTLQTLAPATVQTVAAPQVQQVPVLVQPQIIKTDSLVLTTLKTDGSPVMAAVQNPALTALTTPIQTAALQVPTLVGSSGTILTTMPVMMGQEKVPIKQVPGGVKQLEPPKEGERRTTHNIIEKRYRSSINDKIIELKDLVMGTDAKMHKSGVLRKAIDYIKYLQQVNHKLRQENMVLKLANQKNKLLKGIDLGSLVDNEVDLKIEDFNQNVLLMSPPASDSGSQAGFSPYSIDSEPGSPLLDDAK | – | – | – | binds | binds
